Measured values taken from PMC6656764.
Results are given in words; binding and its absence hold for the method and conditions named. In cells and extracts the contact can be indirect. Some binding calls cover weakened binding; strength is not graded here.

Amino acid sequences for entries named in this document (tags omitted). Residues count along the entry.
UniProt P70302, residues 23-685: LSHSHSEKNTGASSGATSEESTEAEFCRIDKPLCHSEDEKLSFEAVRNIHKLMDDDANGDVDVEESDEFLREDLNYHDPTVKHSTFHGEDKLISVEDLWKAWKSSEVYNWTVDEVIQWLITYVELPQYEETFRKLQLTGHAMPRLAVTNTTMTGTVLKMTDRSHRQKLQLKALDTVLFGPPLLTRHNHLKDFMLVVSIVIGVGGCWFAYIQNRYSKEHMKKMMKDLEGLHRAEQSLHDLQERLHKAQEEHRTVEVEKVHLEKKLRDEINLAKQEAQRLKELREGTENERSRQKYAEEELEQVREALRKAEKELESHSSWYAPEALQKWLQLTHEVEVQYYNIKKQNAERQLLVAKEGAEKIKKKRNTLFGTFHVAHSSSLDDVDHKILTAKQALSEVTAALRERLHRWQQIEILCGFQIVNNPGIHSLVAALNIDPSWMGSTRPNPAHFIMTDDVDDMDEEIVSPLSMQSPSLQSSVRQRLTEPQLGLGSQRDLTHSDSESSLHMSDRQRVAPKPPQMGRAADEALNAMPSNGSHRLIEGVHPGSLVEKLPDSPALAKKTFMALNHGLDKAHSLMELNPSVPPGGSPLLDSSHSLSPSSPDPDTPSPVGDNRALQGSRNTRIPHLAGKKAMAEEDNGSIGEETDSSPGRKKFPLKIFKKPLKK
UniProt Q99J21: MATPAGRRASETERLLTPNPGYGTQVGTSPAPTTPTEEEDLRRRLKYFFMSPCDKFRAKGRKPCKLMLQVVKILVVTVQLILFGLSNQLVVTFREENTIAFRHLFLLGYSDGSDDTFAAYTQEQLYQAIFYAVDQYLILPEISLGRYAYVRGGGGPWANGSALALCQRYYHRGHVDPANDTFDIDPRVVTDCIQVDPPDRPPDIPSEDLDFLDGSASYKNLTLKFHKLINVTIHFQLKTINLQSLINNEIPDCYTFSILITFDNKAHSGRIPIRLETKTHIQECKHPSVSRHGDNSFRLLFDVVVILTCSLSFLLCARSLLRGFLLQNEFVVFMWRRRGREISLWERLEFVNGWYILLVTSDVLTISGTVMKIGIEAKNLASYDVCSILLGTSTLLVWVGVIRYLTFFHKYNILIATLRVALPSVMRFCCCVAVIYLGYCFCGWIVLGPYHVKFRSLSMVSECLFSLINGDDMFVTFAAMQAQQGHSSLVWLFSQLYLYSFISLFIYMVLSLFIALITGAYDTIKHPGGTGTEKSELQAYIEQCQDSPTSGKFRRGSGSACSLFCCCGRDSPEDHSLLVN

Biological target: STIM1 (mouse (endogenous in NSC-34)) (UniProt P70302)
Assay: co-IP; lysates (500 ug) of differentiated NSC-34 cells; immunoprecipitated with anti-STIM1 or anti-TRPML1, blotted with anti-TRPML1 or anti-STIM1 respectively; lysis buffer 50 mM HEPES, 100 mM NaCl, 1.5 mM MgCl2, 0.2% Nonidet P-40

With “Mucolipin TRP channel 1 (TRPML1) (from UniProt Q99J21 1-580)” the binding was “binds”.
